Assay results from patent US20030162221A1.
Results are given in words; binding and its absence hold for the method and conditions named. In cells and extracts the contact can be indirect. Some entries that bind do so weakly or less than the wild type. Tags and fused reporters may be left off the sequences shown.

Columns and labels:
[1] = target: T1, Rad17 (Saccharomyces cerevisiae) (UniProt P48581); assay: anti-FLAG co-IP, LC-MS/MS
T1 sequence (looked up): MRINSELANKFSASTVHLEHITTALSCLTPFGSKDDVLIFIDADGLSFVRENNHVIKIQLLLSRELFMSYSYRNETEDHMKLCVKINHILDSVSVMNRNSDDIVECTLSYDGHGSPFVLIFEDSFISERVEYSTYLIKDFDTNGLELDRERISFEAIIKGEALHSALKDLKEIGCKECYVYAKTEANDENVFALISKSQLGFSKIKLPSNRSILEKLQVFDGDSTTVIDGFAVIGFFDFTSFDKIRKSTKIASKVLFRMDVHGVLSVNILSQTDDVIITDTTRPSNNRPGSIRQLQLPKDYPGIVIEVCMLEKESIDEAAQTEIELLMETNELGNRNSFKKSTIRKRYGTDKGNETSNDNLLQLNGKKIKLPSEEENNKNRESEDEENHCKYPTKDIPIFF

[2] = target: T1, Rad17 (Saccharomyces cerevisiae); assay: anti-FLAG co-IP, LC-MS/MS; pair by Table 2
[3] = target: T2, Dun1 (Saccharomyces cerevisiae) (UniProt P39009); assay: anti-FLAG co-IP, LC-MS/MS
T2 sequence (looked up): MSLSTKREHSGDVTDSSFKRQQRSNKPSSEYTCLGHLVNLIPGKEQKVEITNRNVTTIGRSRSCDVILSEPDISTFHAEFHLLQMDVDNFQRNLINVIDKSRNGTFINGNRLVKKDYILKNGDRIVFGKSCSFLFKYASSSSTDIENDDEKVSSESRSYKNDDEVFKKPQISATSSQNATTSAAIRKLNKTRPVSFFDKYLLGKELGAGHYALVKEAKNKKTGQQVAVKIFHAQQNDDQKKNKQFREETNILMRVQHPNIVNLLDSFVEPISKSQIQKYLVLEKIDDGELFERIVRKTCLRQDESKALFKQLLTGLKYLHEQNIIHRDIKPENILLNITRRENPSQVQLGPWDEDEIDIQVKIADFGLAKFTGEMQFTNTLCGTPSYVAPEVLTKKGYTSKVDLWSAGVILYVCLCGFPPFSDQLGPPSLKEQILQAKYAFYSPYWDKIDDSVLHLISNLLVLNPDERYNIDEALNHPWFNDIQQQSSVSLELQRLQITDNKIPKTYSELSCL

[4] = target: T3, Rfc2 (Saccharomyces cerevisiae) (UniProt P40348); assay: anti-FLAG co-IP, LC-MS/MS
T3 sequence (looked up): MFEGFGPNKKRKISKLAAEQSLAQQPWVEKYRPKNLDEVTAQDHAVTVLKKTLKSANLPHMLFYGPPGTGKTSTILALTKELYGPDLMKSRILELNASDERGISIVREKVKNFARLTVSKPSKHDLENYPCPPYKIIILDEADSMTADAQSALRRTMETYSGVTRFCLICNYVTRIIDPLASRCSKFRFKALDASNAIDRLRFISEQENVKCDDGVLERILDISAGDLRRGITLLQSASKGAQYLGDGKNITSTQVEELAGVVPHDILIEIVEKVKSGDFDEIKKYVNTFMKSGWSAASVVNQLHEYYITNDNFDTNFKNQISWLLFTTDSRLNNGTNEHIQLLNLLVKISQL

[5] = target: T4, Rfc3 (Saccharomyces cerevisiae) (UniProt P38629); assay: anti-FLAG co-IP, LC-MS/MS
T4 sequence (looked up): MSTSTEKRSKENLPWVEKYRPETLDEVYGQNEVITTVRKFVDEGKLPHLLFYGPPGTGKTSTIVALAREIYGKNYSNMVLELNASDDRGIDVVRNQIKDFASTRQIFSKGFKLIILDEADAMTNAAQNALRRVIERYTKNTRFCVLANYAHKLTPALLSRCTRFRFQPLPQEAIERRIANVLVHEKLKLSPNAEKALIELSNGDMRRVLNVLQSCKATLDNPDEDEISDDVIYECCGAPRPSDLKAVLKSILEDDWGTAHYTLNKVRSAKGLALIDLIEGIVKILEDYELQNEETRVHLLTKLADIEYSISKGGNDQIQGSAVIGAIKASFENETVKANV

[6] = target: T5, Rfc5 (Saccharomyces cerevisiae) (UniProt P38251); assay: anti-FLAG co-IP, LC-MS/MS
T5 sequence (looked up): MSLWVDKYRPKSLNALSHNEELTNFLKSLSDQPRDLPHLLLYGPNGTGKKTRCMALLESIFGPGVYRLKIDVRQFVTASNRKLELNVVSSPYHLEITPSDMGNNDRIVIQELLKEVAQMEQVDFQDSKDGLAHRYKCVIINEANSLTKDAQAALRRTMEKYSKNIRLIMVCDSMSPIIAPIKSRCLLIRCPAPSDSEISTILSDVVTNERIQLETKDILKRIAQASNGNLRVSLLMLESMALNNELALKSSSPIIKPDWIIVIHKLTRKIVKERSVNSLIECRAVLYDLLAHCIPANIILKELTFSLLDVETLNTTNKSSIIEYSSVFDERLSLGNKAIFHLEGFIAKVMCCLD

[7] = target: T3, Rfc2 (Saccharomyces cerevisiae); assay: anti-FLAG co-IP, LC-MS/MS; pair by Table 2
[8] = target: T4, Rfc3 (Saccharomyces cerevisiae); assay: anti-FLAG co-IP, LC-MS/MS; pair by Table 2
[9] = target: T5, Rfc5 (Saccharomyces cerevisiae); assay: anti-FLAG co-IP, LC-MS/MS; pair by Table 2
[10] = target: T2, Dun1 (Saccharomyces cerevisiae); assay: anti-FLAG co-IP, LC-MS/MS; Dun1 was the prey by Table 2
[11] = target: T6, Ubc13 (Saccharomyces cerevisiae) (UniProt P52490); assay: anti-FLAG co-IP, LC-MS/MS
T6 sequence (looked up): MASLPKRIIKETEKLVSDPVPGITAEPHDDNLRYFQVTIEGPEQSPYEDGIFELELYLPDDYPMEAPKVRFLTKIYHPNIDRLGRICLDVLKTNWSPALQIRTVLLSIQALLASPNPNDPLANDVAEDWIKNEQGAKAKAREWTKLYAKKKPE

[12] = target: T6, Ubc13 (Saccharomyces cerevisiae); assay: anti-FLAG co-IP, LC-MS/MS; pair by Table 2
[13] = target: T7, Mec3 (Saccharomyces cerevisiae) (UniProt Q02574); assay: anti-FLAG co-IP, LC-MS/MS
T7 sequence (looked up): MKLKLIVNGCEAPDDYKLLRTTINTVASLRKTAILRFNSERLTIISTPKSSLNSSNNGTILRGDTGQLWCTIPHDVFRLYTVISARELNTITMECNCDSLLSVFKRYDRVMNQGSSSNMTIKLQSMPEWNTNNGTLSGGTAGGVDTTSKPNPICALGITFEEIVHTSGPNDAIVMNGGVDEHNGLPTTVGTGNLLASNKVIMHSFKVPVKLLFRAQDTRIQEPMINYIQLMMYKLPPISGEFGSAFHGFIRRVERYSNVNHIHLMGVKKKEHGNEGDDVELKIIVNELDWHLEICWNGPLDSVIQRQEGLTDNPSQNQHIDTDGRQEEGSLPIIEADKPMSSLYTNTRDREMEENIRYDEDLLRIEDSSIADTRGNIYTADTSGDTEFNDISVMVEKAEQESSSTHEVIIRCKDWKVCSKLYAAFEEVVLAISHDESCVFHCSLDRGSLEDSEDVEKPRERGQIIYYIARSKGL

[14] = target: T8, Rfc4 (Saccharomyces cerevisiae) (UniProt P40339); assay: anti-FLAG co-IP, LC-MS/MS
T8 sequence (looked up): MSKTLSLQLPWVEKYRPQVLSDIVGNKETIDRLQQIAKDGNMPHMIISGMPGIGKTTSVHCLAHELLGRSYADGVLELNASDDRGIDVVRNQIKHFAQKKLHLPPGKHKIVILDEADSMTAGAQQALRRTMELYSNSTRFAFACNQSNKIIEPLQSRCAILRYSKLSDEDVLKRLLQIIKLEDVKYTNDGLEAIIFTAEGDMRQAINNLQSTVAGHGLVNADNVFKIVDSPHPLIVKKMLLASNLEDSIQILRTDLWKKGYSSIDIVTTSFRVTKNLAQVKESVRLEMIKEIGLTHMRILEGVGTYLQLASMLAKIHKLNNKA

[15] = target: T7, Mec3 (Saccharomyces cerevisiae); assay: anti-FLAG co-IP, LC-MS/MS; pair by Table 2

Measured: binding

B1: Mec3 (protein, Saccharomyces cerevisiae, UniProt Q02574 1-474, looked up)
chain: T7 sequence (looked up)
binds: [1] | [2]

B2: Rad24 (protein, Saccharomyces cerevisiae, UniProt P32641 1-659, looked up)
chain: MDSTNLNKRPLLQYSLSSLGSQITKWSSSRPTSPVRKARSTENDFLSKQDTSSILPSINDDGGEQWYEKFKPNCLEQVAIHKRKLKDVQEALDAMFLPNAKHRILLLSGPSGCSKSTVIKELSKILVPKYRQNSNGTSFRSTPNEHKVTEFRGDCIVNDLPQMESFSEFLKGARYLVMSNLSLILIEDLPNVFHIDTRRRFQQLILQWLYSSEPLLPPLVICITECEIPENDNNYRKFGIDYTFSAETIMNKEILMHPRLKRIKFNPINSTLLKKHLKFICVQNMKMLKEKNKWNKRQEVIDYIAQETGDIRSAITTLQFWATSSGSLPISTRESTISYFHAIGKVIHGSHSTNNDNEMINNLFENSNNLLSKEDFKLGILENYNTFNKGEFSISDASSIVDCLSECDNMNGLPESNEYGLREVRKTFRNISKQGHNHGTVYFPREWKVRKLQNSFKVQAEDWLNVSLYKYNAVHSFRNITLEFGYYAPLIRKCQSYKKKYILYYLKNLPSGSSGPKQTMDKFSDIMKVENGIDVVDRIGGPIEALSVEDGLAPLMDNDSNNCDHLEDQKKERDRRLRMLIDQYERNVMMANDDLEDEETSFNDDPIVDSDSDNSNNIGNETFGRSDEDESLCEILSQRQPRKAPVISESLSDSDLEIL
binds: [3] | [4] | [5] | [6] | [7] | [8] | [9] | [10]

B3: Mms2 (protein, Saccharomyces cerevisiae, UniProt P53152 1-137, looked up)
chain: MSKVPRNFRLLEELEKGEKGFGPESCSYGLADSDDITMTKWNGTILGPPHSNHENRIYSLSIDCGPNYPDSPPKVTFISKINLPCVNPTTGEVQTDFHTLRDWKRAYTMETLLLDLRKEMATPANKKLRQPKEGETF
binds: [11] | [12]

B4: Ddc1 (protein, Saccharomyces cerevisiae, UniProt Q08949 1-612, looked up)
chain: MSFKATITESGKQNIWFRAIYVLSTIQDDIKITVTTNELIAWSMNETDTTLCQVRFQKSFFEEYEFKPHEIVFGENGVQVIEDTYGNSHKLYSFRVNGRHLTTISRKPDGDGIKSFTIAVNNTSTCPESLANRLIVVIEMDSLIVKEYCPQFQPIKYDPIIINLKYKRRFLDVFGTAASDRNPQEPLDPKLLDVFTNTERELTSALFNEEVESDIRKRNQLTAADEINYICCNSTLLKNFLDNCNVNVTDEVKLEINVHRLSITAFTKAVYGKNNDLLRNALSMSNTISTLDLEHYCLFTTIEDEKQDKRSHSKRREHMKSIIFKLKDFKNFITIGPSWKTTQDGNDNISLWFCHPGDPILMQMQKPGVKLELVEVTDSNINDDILEGKFIKTAISGSKEEAGLKDNKESCESPLKSKTALKRENLPHSVAGTRNSPLKVSYLTPDNGSTVAKTYRNNTARKLFVEEQSQSTNYEQDKRFRQASSVHMNMNREQSFDIGTTHEVACPRNESNSLKRSIADICNETEDPTQQSTFAKRADTTVTWGKALPAADDEVSCSNIDRKGMLKKEKLKHMQGLLNSQNDTSNHKKQDNKEMEDGLGLTQVEKPRGIFD
binds: [13] | [14] | [15]
